Our source for the z-score values is PubChem BioAssay AID1347423 (Functional Genomics Laboratory (NCATS/FGL), 2020).

Among all 52,000 sequences or so, about 210 (0.4%) were called active.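 How the source made its calls: active means gene whose silencing raises cell survival under the drug, median off-target-corrected z-score across its silencing RNAs 2 or more; inactive means the rest.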 Some of the results follow.

This test can be described thus: Resistance to Poly (ADP-Ribose) Polymerase inhibitor: Gene Identification via Genome-wide siRNA Screen. The conditions noted are these: mouse BRCA2 R2336H ES cells, olaparib, CellTiter-Glo viability; active compounds read high. The method in brief:
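Genome-wide siRNA screen (3 siRNAs/gene, 20 nM) in mouse ES cells carrying hypomorphic BRCA2 R2336H; olaparib 500 nM added 48 h post-transfection, CellTiter-Glo viability 72 h later. Normalized to plate-median negative control; MAD z-scores, gene median, seed-adjusted.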
(In ATP-based viability assays light output follows the ATP content of the culture.)
In the case of GCGCACAACAGACUUCUAUTT against Epm2a, the z-score was inactive: 0.346.

CCUAAAGAAGGUCUAUGCCTT against Tegt: the z-score is inactive: 0.524. As for GCAACUAGCGUGUGUUCCUTT against Arpc1a, the z-score was inactive: 0.156. As for GGAUGGAAAUAAAUUCACATT against Fabp2, the figure is inactive: -0.811; as for GCCCGGAGAAUAUUAACUATT against AI839562, inactive: 0.557. As for GGCCAUAUGUCAAGAAGUUTT against Svp2, the figure is inactive: -1.19; as for CCUUAUAGCUAUGACUUUCTT against Tas2r136, inactive: -0.137; as for GGAACUGAUGAGAACACUATT against Gbp1, inactive: -0.441. Consider GGCCGUGAUAGUCAGUGACTT against LOC433365, for which the z-score is inactive: 0.0165. Under GGAGACAAUAAUUGAAGAUTT against Gabpb2 stands inactive: 0.496; under “GCAGAUCGGUUCUCAGAUGTT against 4930538K18Rik”, inactive: 1.12. As for GGCUGACCUCAUUAAUAACTT against Hspcb, the figure is inactive: 0.724. Under “GCCACUAGUGAAGACAUCCTT against 5930437A14Rik” stands inactive: 0.765. On to GGAGAUGGAAAAGAACAGATT against Dtnb, for which the z-score was inactive: 0.109.

On to GGUCUAUGGCUUAAACUUUTT against Evl, for which the z-score is inactive: -0.257. Regarding CCACACGAGUAUUUUAGUATT against BC014685, the z-score was inactive: 0.0246.

As to GCAUGCUAGGGAACCUGCUTT against Olfr1318, the z-score is inactive: -0.313. As for GGUGCUGGAGAACAUUAAATT against Panx1, the figure is inactive: -0.231; as for GCCUAUCAAUGUGUAUCUUTT against Tcf21, inactive: 1.1. Under GGACAGGUACUUUUCCCUGTT against Gnpda2 stands inactive: 0.454.

Turning to GGUGCUCACAGUGAAGAAGTT against Ppm1h, the z-score is inactive: -0.176. For GGAAGUGGAUGAGGAUUGATT against Purb, the z-score was inactive: -0.671. As for GGCUUACCUUGGAUUUUAUTT against Rab36, the figure is inactive: 0.394. Regarding CCCUGAGUGCCGUAUGAUUTT against Ddb1, the z-score was inactive: -1.92.

As to GGUGAUGGAUGUGGACACATT against Dcbld2, the z-score is inactive: -0.607. Under GGAGAUUGUGGAAAUGCUUTT against Skiv2l stands inactive: 1.28.

With CCAUGUCCUAACCUGAAACTT against Zic5, the z-score is inactive: 0.454.

For GGUGUAUAGUUUUACACUCTT against Psen2, the z-score is inactive: 2.03. On to CGGAGCCAGUUGGUAAAGATT against Vps39, for which the z-score is inactive: -1.25. As for GCCAAACGUGGGUUUGAUATT against Ccna1, the figure is inactive: -0.552; as for “CCUAAAUUCUUCACCUUCGTT against A830007P12Rik”, inactive: -0.204. Under GGAUGAAAAGUUAAAGCAUTT against Ppp1r7 stands inactive: -0.691.

As for GCUGUACAAUUUUAGGAGGTT against Slc17a2, the z-score was inactive: 0.0998.

Regarding GGGCCUGCCAGUGUGAUAUTT against Gpha2, the z-score was inactive: -0.958. As for GGUGGUGGUACUGGUCAAUTT against D11Lgp2e, the figure is inactive: -0.181.

Regarding CCUGGUGACAUCACUAAAATT against P4ha1, the z-score is inactive: 1.15.

With “CCUUGUCCCUUUACCUCAATT against 6330514A18Rik”, the z-score was inactive: -1.92.

Consider GCUACUUCAGCUAUUGAGGTT against Cd200r1, for which the z-score was inactive: 1.27. As for GGCAUGGGAAUUAUUCCAATT against Kif5b, the figure is inactive: 0.629. As for “GGAAAUACAGAACACAAGCTT against 9430067K14Rik”, the figure is inactive: 0.496. Under GGAUUAUCAGAAGUGUGUCTT against Mrps35 stands inactive: 0.898; under GGAUGAACAACUCUAGGCCTT against Mafk, inactive: -0.117; under “GGGAAACAGAUGAAAGAGUTT against 2310035C23Rik”, inactive: -1.44. With GCAAUUCAUCAGGAGCAGGTT against Rab8b, the z-score is inactive: -0.27. Under GGAUGACCACACUAACCUCTT against Fars1 stands inactive: -1.89. As for CGAGGCUAUUGACUUCAUATT against Dusp1, the figure is inactive: -0.184; as for CGUCUGUUUUUGUGAAUUATT against LOC432736, inactive: -0.324; as for GGAUUCAAGCAUCGGAUUGTT against Adamts6, inactive: -2.09. Consider “GGAACAGCAGCUUCCCUAATT against 4930555G01Rik”, for which the z-score is inactive: -1.77. As for GAUCUCUGAAUUACGGAGUTT against Krtap13, the figure is inactive: 1.59; as for “CCCACUACCGUCUUUCCUATT against F830014G06Rik”, inactive: -1.46; as for GGAGACCUUGAAGAAGAUUTT against Vav2, inactive: -0.626. Under “GCUAUUCUGUAAGGUCCCGTT against 1700020F09Rik” stands inactive: 1.99.

Regarding GCUGAGCAUCCAGUGUAGUTT against Gm433, the z-score is inactive: 0.0421. Under GCCGUACCGGAUUUUUUUCTT against Smyd3 stands inactive: 0.405. As for GGUGAAAACGUGGUUCCAGTT against Bsx, the figure is inactive: -1.19; as for GGGUACUGUUUUGUUAACUTT against Rbm18, inactive: -0.248. As for GGCCAGAGUAUCGAUGUUCTT against Slc25a14, the figure is inactive: -0.747.

Turning to GGAUGUUAAAGCAAGUGUATT against Olfr1153, the z-score is inactive: -1.18.

For CGACCAAGAUGUAAUACAUTT against Nudt8, the z-score was inactive: 0.00898.

Take GGACAGUUCCAUGAAUACCTT against Rab5b: the z-score is inactive: -0.505. As for GGUGAAACGGGAUGUUAACTT against Ppargc1b, the figure is inactive: 0.429; as for GGACAUCAUGUGCAUGGAATT against Fbxo38, inactive: -0.54. Under GGUAUACCAGAGGAAGAAGTT against Slc39a11 stands inactive: 0.229; under GCAAUAUGGCCUCAGUCUCTT against Rnf33, inactive: -0.153; under “GCCAGUACUCUGCUUGUGATT against 4933440H19Rik”, inactive: -2.27.

On to “GGAUUCAGCAGACUUUGAATT against C730027P07Rik”, for which the z-score was inactive: -1.58. Under GGUUCAGAAGUUUGGGAGATT against Mrpl48 stands inactive: -1.02; under “GGAUGAAGAACUUCUCUGGTT against 2010002A20Rik”, inactive: -0.217. As for GGAGUUUACGGCUAUUGACTT against Centa2, the figure is inactive: -1.46; as for GCUGUGUGUUGUUCAAUUGTT against Pdcd6ip, inactive: -0.0293; as for GGGCAUGCUGCUUAUUGUGTT against Slc5a4b, inactive: 1.65.

As for CCCUGAGAAGGAUGCGAAATT against Mgat4b, the z-score was inactive: -0.109.

As for GGCAAAGAGUUUUGAUCAGTT against Calu, the z-score was inactive: 0.133. As for GGUACUCCAGAAUAGAAGCTT against Gdf8, the figure is inactive: 0.715; as for “GGAGAAGAGCAGAAUAUGCTT against B930060C03”, inactive: 1.01; as for GGAGACAAUGGACAAGAAGTT against Dnalc4, inactive: 1.01. For GUUUUUCUGGGCAAUUUUATT against Olfr739, the z-score was inactive: 1.5. For the sequence GGGUUUAUGUUGCCGACUCTT against Set7, the z-score is inactive: -1.02. Take GAGACAUCCUCUUCACCAUTT against Olfr495: the z-score is inactive: -2.11. For the sequence GCACAACAUCACGGUGAACTT against Adcy5, the z-score is inactive: -0.642.

On to GGUGCAACAACACCACAUCTT against Mmp1a, for which the z-score was inactive: -0.511. Under GGAUCACUGGGAAAACGGUTT against Nfatc2 stands inactive: 0.459; under GGAUCUUUCAAAGAGAGUUTT against Egfl8, inactive: 0.0584; under CGACAUGGAAUGUUCACACTT against Metap2, inactive: 1.98. Under “GGAGCUGAAUGAAAACCAGTT against 2810468K05Rik” stands inactive: 0.16.

As for GGAGAAGCUAAGAAACGAGTT against Acyp2, the z-score was inactive: -0.523.

For the sequence GGGAUUUGGUUUCGUAACUTT against A2bp1, the z-score is inactive: 0.991. As for GGUGUCUUUGCUCAGCUCATT against Lrfn4, the figure is inactive: -0.857; as for GGCAUAGCACUUUUGUACCTT against Lancl2, inactive: 0.93; as for “CGAUACAUAUCCAUUGUAUTT against A030013N09Rik”, inactive: -0.405. Regarding CCGCCUUUCUUACAACCAATT against Rpl41, the z-score is inactive: -0.65. Under GCAGAUAAUCUAGCAAAGATT against Agps stands inactive: 0.0454; under GCACAGGGAAUGUUGUAGATT against Polr3d, inactive: -0.56. With UAGUCAUUGGGAUUCCUUCTT against Olfr112, the z-score was inactive: 0.647.

With GGGAAUGCUUAUGUAGGCATT against Aldh3b1, the z-score was inactive: -1.27. Under CGGGUCUGCUCUUUGGAAATT against Yif1b stands inactive: -1.08; under GCGUAAAUCUCCACACUACTT against V1ra9, inactive: 2.16; under CCUACUACAUCCGCUACUGTT against Apba2, inactive: -1.5.

In the case of GGUCUAUGCUGAUGCUUCUTT against Dhps, the z-score was inactive: 0.618. Under “GCAGAGAGCACAAUAAAGCTT against 0710001P09Rik” stands inactive: 0.0234; under CCUAGUCCUGAUUUAUCAGTT against Bat1a, inactive: -0.339.

GGUCAAUUAUGAAGAGUUUTT against Calm3: the z-score was inactive: 1.59. For “CGAAGUCUGAAACACAUGUTT against A730018C14Rik”, the z-score is inactive: 0.435.
